The other results are listed elsewhere or left out.

The chains behind the UniProt entries cited, without tags or fusion partners.
UniProt Q0JBA9, entry or part of it: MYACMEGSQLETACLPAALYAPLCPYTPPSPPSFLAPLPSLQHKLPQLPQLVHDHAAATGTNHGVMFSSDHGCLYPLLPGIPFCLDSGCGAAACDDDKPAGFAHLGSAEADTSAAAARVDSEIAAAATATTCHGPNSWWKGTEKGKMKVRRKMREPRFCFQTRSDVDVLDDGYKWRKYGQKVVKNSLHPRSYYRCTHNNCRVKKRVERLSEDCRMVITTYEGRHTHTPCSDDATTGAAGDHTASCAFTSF

The assay addresses OsWRKY34 (Oryza sativa, UniProt Q0JBA9 1-250). As to the kind of experiment: protein-binding microarray (RPBM); PBS, 2% BSA, 51.3 ng/ul salmon testes DNA, 50 uM zinc acetate, 200 nM TF, 25 C, 1 h; high values mean tight binding. The note with it: protein: recombinant; tags: N-terminal polyhistidine and DsRed monomer fusion (pET32a); label: CyDye5-dUTP incorporated in the synthesized complementary strand; 3' TTTTT single-stranded linker to array surface; dsDNA, one strand shown. The gist of the method:
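Transcription factors were made in E. coli BL21-CodonPlus as N-terminal fusions to a polyhistidine tag and DsRed, then purified on Ni–NTA. After primer extension with Cy5-dUTP and blocking with 2% BSA, a custom Agilent array was exposed for 1 h at 25 °C to 200 nM protein in PBS, 2% BSA, salmon testes DNA and 50 µM zinc acetate. Washed arrays were scanned on an Axon 4000B, and the binding signal is per-feature fluorescence intensity in arbitrary units.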
“CACACCCACCCACACACCACTCACTGACATGCGGGCCCCACGGAGTCACCTAGTGCAG”: the binding signal was 12800 fluorescence intensity (a.u.).
“ACCTACTACATTCATGAGTTGCACATTTTGCATATCTTTTCGGAGTCACCTAGTGCAG”: the binding signal is 8580 fluorescence intensity (a.u.).
For “AACGCCGCCTCCAGCTTCTCCATGATCGCCGGCGCCAGCGCGGAGTCACCTAGTGCAG”, the binding signal is 8670 fluorescence intensity (a.u.).
For the sequence “TGACCAAATTTTCATCCTTCCGTTACTATCTGCGGATCTTCGGAGTCACCTAGTGCAG”, the binding signal is 10100 fluorescence intensity (a.u.).
“CATATTTCTCATCGTTTTTATTCTTAGTTGCTATATGTAGCGGAGTCACCTAGTGCAG”: the binding signal was 9050 fluorescence intensity (a.u.).
The result for “CCCTCCTTGCACATTTTAGTACTAATTCGCCTACGACTTCCGGAGTCACCTAGTGCAG” reads 8410 fluorescence intensity (a.u.); that for “TTACGTTTTTCTGGTGGGTTTTGTGCTTTTTCAGAGTACGCGGAGTCACCTAGTGCAG”, 11800 fluorescence intensity (a.u.); that for “AGCAATGACTTTTATACAACACATGCCAATCCATTTTCCCCGGAGTCACCTAGTGCAG”, 9160 fluorescence intensity (a.u.).
For “AACTTCCACTGAACACATGAACCGAAGCCCACACTGTCCCCGGAGTCACCTAGTGCAG” the value was 9030 fluorescence intensity (a.u.); for “CACATCTCTCGCATCCCAATCCGCCACAGCACTCTACATGCGGAGTCACCTAGTGCAG”, 9860 fluorescence intensity (a.u.).
“AATATTTATCATTTATTTTCGTTTTTTTAGTATGTGTTAGCGGAGTCACCTAGTGCAG”: the binding signal is 8320 fluorescence intensity (a.u.).
For “ACACTTTTGTCTCGAATTTGAATTCACCATCTGCACCGATCGGAGTCACCTAGTGCAG” the value was 8030 fluorescence intensity (a.u.); for “TATTCTCGTCAACCTATGTTTACAAAGCTTGAAATCTCAACGGAGTCACCTAGTGCAG”, 9040 fluorescence intensity (a.u.); for “ACCTCGTCCTCTGCTGATTTCAACCCATCGTCGCTCGATCCGGAGTCACCTAGTGCAG”, 10300 fluorescence intensity (a.u.).
On to “CAACTAATCATCAGCCTCTTCGATCTCCTTAATTTGTTTCCGGAGTCACCTAGTGCAG”, for which the binding signal was 10300 fluorescence intensity (a.u.).
Regarding “GCTCCGTCTTCCTGCTCCAGCCGCTCGCCATAGCCCACTGCGGAGTCACCTAGTGCAG”, the binding signal was 11100 fluorescence intensity (a.u.).
For “CTATGATTATTAGTCAAAAGCTACCAAGTTTGATTTTCCTCGGAGTCACCTAGTGCAG” the value was 8360 fluorescence intensity (a.u.).
Turning to “GAGTGGAGTACTGTTTAATTTGGAGCTTAGCCATCCACTACGGAGTCACCTAGTGCAG”, the binding signal was 8760 fluorescence intensity (a.u.).
With “ATTGACTCCCGCTGATTTTTCTTCTGGGTTCGCCATTGCCCGGAGTCACCTAGTGCAG”, the binding signal is 12300 fluorescence intensity (a.u.).
For the sequence “ATCTATCATTCTGAAATTATTCATCATCGATCAAGGTGCTCGGAGTCACCTAGTGCAG”, the binding signal was 8110 fluorescence intensity (a.u.).
The result for “CCACCGCTCTCTTCCGCCGCTGCGGCTCACGGCTACGCAGCGGAGTCACCTAGTGCAG” reads 8220 fluorescence intensity (a.u.).
For “GCGGATTGGTCGCCCGCCACTGTCTCCCGCGCCTTTCTTGCGGAGTCACCTAGTGCAG” the value was 12200 fluorescence intensity (a.u.).
The result for “CACTACTCCTACGCCTTACAGATCTGATCCTGCTGGATTGCGGAGTCACCTAGTGCAG” reads 10200 fluorescence intensity (a.u.); that for “ATGCACTCATTGGTTGGTATAAATACACCACATTGTTCACCGGAGTCACCTAGTGCAG”, 8300 fluorescence intensity (a.u.); that for “TGATGGATATGGTACTATACTACGGAGTTTTTTCTTCACACGGAGTCACCTAGTGCAG”, 9760 fluorescence intensity (a.u.).
In the case of “TGTGTAGGGTGGGTTCTATTTGAGGGATTAGAGTATGTTCCGGAGTCACCTAGTGCAG”, the binding signal was 15500 fluorescence intensity (a.u.).
For “CTACCTCAGTCACCACTCACCACACCAGGTGCGAGCTATACGGAGTCACCTAGTGCAG”, the binding signal was 8600 fluorescence intensity (a.u.).
For “ATTCCTATCAAAATCCTACGATTTTCCTATTCGTACGTTTCGGAGTCACCTAGTGCAG” the value was 8640 fluorescence intensity (a.u.); for “TCGAACGTGGGGATGGCTAATTGCAGAGGTTGATCTAACTCGGAGTCACCTAGTGCAG”, 9500 fluorescence intensity (a.u.).
For “GGGTTGATTTTGCTTCCTGCATCCCAGCGACATCGCCCAACGGAGTCACCTAGTGCAG” the value was 11500 fluorescence intensity (a.u.).
For “CTTCACTTCACTTCACGCACGCTCAGATCCAGCCTCGCTTCGGAGTCACCTAGTGCAG” the value was 9900 fluorescence intensity (a.u.); for “GGTAGCCATCTTAACTTTTAAAATCTCTCAACATTTTTTACGGAGTCACCTAGTGCAG”, 11200 fluorescence intensity (a.u.); for “TATTGTTGTTCCAACCAACTTTTGTATCATTCTTATTCTTCGGAGTCACCTAGTGCAG”, 12900 fluorescence intensity (a.u.).
On to “AGCCTTAATTTGCACGCTACAGTCTATCAACCACTTTAATCGGAGTCACCTAGTGCAG”, for which the binding signal was 11400 fluorescence intensity (a.u.).
As for “TCCACCACCTCAGTCCGCCTCTCCAGTGCCTCGATTGACTCGGAGTCACCTAGTGCAG”, the binding signal was 8470 fluorescence intensity (a.u.).
The result for “CGACACATTCTTCGAGATACTACTTTGACCAACAATATCTCGGAGTCACCTAGTGCAG” reads 10900 fluorescence intensity (a.u.); that for “AAATCATTTTTCTATTTTCGTTCCTATTTATTTAACTCAACGGAGTCACCTAGTGCAG”, 8160 fluorescence intensity (a.u.); that for “GCGCTGTGGTCCCGGCGCCGGCAGTGGTTGCTTCTGCGCGCGGAGTCACCTAGTGCAG”, 8560 fluorescence intensity (a.u.).
For “GGTGGTGGTGGTGGGGCGGGAGAAGTACTCCGAGTAGTCGCGGAGTCACCTAGTGCAG”, the binding signal was 15500 fluorescence intensity (a.u.).
Consider “ACGTGGCACTCGACTGGCGCTTTTTTCGGTGTTTTTCTTTCGGAGTCACCTAGTGCAG”, for which the binding signal was 13800 fluorescence intensity (a.u.).
With “CTCCTCCCCTGTTTCCTCTCGTTCTTCTCCAACTCACCCTCGGAGTCACCTAGTGCAG”, the binding signal is 10200 fluorescence intensity (a.u.).
For “TGCAGCCTTCTTGTCCTCCTGTTCGTCAACAGCATCAGCACGGAGTCACCTAGTGCAG”, the binding signal is 10900 fluorescence intensity (a.u.).

The record behind these values is PMC7819943, “Rice protein-binding microarrays: a tool to detect cis-acting elements near promoter regions in rice”.
